Some of the results follow.
Columns and labels:
Assay in all cases: log2 fold change, soluble protein after heating vs DMSO (PISA); higher = thermal stabilisation; K562 cells, 10 uM, 30 min; active = over 0.2 and 3.5 SD of the protein, either way, in both replicates (recomputed)
[1] = compound: CC1=C(C=C(C=C1)NC(=O)C2=CC(=CC=C2)N(C)C)NC(=O)C3=CC=C(C=C3)O
Summary of the method: (§1)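 Values are thermal stability changes relative to control samples and are taken from duplicates. They are stated as log2 fold changes. Before quantification by TMTpro 16plex LC-MS/MS with equalised channel sums, K562 cells at 2×10^6 cells/mL were treated with 10 μM compound for 30 min, heated in aliquots for 3 min across 48°C-58°C, pooled, extracted in PBS with 0.5% NP-40 at 4°C, and centrifuged at 21,000xg for 90 min to give the soluble supernatant.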

By UniProt entry, the sequences of proteins in these tests, tags left out. Where a name states a change or a piece, a line headed by the entry shows the natural chain unless it says otherwise.
UniProt P56749: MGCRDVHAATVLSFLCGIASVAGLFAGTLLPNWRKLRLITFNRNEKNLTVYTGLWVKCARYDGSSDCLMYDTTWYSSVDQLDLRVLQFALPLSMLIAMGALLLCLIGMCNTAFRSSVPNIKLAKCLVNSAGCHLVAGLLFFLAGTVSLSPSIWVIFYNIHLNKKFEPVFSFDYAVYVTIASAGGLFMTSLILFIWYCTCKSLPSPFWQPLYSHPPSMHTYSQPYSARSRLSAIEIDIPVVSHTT
UniProt G5E9Z2: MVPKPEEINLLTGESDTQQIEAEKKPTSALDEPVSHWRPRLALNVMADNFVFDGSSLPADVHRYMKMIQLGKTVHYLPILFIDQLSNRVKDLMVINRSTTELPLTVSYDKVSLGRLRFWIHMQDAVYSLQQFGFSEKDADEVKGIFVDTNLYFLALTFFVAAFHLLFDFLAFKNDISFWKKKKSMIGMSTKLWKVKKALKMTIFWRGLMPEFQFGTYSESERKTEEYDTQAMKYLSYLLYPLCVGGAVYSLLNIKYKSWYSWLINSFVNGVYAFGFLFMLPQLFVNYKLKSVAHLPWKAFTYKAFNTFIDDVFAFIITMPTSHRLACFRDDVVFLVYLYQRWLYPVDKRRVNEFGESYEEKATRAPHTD
UniProt Q9Y2V7: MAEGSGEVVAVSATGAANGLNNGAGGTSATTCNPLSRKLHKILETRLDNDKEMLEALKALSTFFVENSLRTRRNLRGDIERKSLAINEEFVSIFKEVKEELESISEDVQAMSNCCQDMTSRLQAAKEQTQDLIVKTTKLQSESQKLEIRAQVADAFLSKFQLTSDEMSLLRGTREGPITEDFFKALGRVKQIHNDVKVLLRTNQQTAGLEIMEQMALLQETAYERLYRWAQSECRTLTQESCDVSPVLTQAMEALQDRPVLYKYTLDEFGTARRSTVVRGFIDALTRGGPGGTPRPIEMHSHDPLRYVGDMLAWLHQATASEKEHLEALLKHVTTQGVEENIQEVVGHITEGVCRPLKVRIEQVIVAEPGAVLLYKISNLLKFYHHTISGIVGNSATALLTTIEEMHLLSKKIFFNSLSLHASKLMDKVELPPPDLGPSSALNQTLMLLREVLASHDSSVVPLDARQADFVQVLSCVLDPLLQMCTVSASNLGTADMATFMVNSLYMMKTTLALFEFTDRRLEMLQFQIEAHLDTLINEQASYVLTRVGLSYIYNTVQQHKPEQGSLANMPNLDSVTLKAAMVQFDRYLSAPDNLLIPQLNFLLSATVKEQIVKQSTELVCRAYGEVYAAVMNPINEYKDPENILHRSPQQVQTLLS
UniProt P51801: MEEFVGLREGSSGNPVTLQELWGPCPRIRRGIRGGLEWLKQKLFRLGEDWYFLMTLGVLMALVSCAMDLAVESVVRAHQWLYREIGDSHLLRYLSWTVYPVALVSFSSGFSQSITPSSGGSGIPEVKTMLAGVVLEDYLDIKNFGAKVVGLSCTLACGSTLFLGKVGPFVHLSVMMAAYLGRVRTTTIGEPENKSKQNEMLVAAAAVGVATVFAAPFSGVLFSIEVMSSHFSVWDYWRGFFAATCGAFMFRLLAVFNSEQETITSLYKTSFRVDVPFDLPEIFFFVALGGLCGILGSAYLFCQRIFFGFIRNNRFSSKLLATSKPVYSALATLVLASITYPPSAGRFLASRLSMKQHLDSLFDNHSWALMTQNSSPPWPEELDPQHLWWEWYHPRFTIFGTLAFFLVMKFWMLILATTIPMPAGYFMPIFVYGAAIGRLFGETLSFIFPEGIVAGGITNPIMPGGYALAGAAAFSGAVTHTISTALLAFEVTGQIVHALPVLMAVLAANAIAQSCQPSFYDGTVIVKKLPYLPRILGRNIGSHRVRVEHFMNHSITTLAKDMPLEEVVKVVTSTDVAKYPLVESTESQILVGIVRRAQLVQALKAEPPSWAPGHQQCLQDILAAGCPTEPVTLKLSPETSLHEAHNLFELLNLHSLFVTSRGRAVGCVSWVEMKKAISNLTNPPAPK
UniProt P51795: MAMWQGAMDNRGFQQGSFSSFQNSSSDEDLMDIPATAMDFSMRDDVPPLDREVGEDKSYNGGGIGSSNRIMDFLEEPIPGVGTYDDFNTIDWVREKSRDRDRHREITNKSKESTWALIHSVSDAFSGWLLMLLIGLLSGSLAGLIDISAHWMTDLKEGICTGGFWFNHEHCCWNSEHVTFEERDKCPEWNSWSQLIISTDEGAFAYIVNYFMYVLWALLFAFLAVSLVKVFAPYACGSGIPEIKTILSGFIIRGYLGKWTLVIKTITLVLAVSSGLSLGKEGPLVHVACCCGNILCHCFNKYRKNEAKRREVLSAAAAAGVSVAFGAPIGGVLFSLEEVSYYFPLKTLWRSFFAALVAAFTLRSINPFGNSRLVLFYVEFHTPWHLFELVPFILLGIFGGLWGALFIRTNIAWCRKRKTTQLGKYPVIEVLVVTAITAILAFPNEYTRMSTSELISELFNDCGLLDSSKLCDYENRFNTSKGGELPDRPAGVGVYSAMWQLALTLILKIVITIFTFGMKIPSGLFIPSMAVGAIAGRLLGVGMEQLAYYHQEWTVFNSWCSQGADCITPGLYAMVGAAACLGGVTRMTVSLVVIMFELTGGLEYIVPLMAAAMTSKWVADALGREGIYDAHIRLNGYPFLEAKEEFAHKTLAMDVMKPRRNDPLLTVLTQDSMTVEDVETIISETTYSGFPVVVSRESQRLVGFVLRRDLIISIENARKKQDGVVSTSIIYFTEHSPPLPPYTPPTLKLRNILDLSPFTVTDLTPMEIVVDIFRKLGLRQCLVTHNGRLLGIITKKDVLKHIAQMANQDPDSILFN
UniProt Q8IZR5: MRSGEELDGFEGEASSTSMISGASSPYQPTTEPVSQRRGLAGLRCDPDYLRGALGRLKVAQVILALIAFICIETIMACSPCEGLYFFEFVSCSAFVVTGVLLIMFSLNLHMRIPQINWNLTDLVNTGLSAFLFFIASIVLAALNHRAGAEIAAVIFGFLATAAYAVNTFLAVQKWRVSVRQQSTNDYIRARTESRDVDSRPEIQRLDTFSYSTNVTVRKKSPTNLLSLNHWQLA
UniProt P62633: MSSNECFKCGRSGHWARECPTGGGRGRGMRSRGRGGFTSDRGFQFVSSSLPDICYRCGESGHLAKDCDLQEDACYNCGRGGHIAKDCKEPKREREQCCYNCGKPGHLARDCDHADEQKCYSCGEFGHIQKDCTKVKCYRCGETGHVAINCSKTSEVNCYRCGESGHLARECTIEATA
UniProt Q96F85: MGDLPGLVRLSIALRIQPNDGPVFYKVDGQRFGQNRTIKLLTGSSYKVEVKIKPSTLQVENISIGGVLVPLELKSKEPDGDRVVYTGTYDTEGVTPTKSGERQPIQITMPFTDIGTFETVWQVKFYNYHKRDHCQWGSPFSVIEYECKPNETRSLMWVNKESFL
UniProt Q9Y240: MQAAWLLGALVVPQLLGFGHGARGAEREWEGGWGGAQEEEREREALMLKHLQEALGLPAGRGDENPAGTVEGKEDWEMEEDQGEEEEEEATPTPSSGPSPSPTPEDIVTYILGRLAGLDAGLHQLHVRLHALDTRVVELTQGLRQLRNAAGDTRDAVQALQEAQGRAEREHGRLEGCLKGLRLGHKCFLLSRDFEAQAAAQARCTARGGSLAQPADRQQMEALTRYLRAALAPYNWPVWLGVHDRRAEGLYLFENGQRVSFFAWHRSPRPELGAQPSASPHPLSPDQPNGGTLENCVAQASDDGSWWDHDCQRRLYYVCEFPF
UniProt Q9Y3Y2: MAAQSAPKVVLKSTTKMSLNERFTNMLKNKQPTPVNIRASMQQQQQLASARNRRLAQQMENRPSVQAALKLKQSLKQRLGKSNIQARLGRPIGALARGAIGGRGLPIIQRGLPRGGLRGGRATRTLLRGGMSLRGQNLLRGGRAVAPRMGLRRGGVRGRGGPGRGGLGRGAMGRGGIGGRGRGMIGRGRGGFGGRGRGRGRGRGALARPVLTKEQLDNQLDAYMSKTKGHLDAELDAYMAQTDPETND
UniProt Q8N0X4: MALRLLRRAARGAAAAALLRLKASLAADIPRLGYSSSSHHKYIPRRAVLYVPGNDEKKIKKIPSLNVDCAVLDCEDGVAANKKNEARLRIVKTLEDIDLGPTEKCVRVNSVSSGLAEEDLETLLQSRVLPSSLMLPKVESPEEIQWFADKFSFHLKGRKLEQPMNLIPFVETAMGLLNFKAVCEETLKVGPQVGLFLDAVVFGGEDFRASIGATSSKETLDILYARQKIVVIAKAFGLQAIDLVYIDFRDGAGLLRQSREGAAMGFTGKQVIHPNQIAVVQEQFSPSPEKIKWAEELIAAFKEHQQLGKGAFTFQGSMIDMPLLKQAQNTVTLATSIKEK
UniProt Q8NCH0: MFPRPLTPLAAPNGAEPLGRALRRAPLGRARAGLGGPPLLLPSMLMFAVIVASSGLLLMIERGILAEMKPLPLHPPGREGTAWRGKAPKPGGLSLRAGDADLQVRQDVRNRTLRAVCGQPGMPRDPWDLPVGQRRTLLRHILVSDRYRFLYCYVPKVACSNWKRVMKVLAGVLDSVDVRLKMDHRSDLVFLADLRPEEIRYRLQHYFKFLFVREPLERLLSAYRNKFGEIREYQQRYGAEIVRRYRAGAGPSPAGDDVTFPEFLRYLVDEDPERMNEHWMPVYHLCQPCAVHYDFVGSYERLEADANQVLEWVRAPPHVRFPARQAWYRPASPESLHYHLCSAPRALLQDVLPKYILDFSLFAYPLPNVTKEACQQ
UniProt Q86WW8: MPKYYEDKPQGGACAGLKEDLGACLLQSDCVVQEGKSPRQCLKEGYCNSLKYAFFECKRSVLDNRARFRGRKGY
UniProt Q9UP83: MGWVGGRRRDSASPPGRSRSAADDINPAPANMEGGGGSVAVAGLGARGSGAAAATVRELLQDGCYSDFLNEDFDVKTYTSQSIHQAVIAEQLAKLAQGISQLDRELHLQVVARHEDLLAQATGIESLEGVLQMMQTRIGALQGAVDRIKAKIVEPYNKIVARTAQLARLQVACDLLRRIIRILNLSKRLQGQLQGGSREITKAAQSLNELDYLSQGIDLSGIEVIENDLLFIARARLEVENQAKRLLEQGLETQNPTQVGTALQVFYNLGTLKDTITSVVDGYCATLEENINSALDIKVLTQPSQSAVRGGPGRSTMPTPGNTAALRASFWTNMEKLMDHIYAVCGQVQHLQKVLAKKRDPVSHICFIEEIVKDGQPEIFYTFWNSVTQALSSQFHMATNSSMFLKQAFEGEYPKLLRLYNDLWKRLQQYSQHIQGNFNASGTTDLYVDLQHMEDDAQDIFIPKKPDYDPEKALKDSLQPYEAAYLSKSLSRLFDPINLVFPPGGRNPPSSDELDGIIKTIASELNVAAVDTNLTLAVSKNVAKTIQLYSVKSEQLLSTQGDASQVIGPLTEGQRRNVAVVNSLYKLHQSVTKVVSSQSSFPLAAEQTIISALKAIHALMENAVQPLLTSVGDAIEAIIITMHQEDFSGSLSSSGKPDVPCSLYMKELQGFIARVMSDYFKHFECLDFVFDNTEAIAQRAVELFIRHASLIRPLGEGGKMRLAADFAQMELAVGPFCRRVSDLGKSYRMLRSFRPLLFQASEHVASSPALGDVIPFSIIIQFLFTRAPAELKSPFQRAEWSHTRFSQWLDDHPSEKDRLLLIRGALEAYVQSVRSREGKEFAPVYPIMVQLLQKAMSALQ
UniProt Q86X52: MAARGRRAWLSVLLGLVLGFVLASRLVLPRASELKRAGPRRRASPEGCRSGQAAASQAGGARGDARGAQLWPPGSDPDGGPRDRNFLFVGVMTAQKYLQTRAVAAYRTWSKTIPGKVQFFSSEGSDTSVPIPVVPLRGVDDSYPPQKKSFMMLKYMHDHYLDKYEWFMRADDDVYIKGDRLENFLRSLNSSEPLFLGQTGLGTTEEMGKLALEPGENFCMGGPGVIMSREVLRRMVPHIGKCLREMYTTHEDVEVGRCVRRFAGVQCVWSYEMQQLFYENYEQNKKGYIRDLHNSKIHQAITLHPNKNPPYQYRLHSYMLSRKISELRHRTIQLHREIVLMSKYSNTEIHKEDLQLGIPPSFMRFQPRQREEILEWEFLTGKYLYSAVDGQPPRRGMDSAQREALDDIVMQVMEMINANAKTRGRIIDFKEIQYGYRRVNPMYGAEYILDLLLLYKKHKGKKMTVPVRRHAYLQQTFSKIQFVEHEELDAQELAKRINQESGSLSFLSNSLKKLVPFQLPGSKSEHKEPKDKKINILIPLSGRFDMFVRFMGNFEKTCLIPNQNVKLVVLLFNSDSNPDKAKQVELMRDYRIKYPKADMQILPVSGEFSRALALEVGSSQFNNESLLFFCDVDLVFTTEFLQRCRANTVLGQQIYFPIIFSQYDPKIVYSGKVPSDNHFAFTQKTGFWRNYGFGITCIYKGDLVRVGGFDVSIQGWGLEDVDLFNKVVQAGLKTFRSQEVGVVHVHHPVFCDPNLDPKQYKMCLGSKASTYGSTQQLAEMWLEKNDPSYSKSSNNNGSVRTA
UniProt P56747: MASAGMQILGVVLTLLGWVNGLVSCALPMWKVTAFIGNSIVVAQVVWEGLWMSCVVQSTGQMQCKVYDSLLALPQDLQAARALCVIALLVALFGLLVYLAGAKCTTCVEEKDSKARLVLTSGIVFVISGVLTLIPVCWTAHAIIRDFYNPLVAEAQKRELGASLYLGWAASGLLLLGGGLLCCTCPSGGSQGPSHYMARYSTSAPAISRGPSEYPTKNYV

[2] = compound: CC1=CC=C(C=C1)SC2=C3C=C(SC3=CN=C2)C(=O)N
Summary of the method: as §1

[3] = compound: CCCCN(Cc1ccc(C(=O)NO)cc1)C(=O)Nc1ccccc1 [Nexturastat A]
Summary of the method: as §1

[4] = compound: CCCS(=O)(=O)Nc1ccc(F)c(C(=O)c2c[nH]c3ncc(-c4ccc(Cl)cc4)cc23)c1F [vemurafenib]
Summary of the method: as §1

[5] = compound: CCCS(=O)(=O)Nc1ccc(F)c(C(=O)c2c[nH]c3ncc(Cl)cc23)c1F
Summary of the method: as §1

[6] = compound: CCCc1cc(C)[nH]c(=O)c1CNC(=O)c1cc(-c2ccnc(N3CCN(C)CC3)c2)cc2c1cnn2C(C)C
Summary of the method: as §1

[7] = compound: CCN(CC)Cc1ccc2cc(COC(=O)Nc3ccc(C(=O)NO)cc3)ccc2c1 [givinostat]
Summary of the method: as §1

[8] = compound: CC[C@@H]1C(=O)N(C)c2cnc(Nc3ccc(C(=O)N[C@H]4CC[C@H](N5CCN(CC6CC6)CC5)CC4)cc3OC)nc2N1C(C)C [volasertib]
Summary of the method: as §1

[9] = compound: CC[C@H](C)[C@@H](C(=O)N[C@@H]([C@@H](C)O)C(=O)N[C@@H](CC(C)C)C(=O)[C@]1(CO1)C)NC(=O)[C@H]([C@@H](C)CC)N(C)C(=O)C [epoxomicin]
Summary of the method: as §1

[10] = compound: CCn1c(C(=O)N(C2CC2)C2CC2)cc2c3c(ncn3C)c(Nc3cc(C)n(C)n3)nc21
Summary of the method: as §1

[11] = compound: CN(C)CC(=O)Nc1ccc2[nH]c(=O)c3ccccc3c2c1
Summary of the method: as §1

[12] = compound: CN1C2=C(C3=C1C(=O)N(N=C3)CC4=CC(=CC=C4)N)SC(=C2)S(=O)C
Summary of the method: as §1

[13] = compound: CC1=C(C=C(C=C1)NC(=O)C2=CC(=CC=C2)C(C)(C)C#N)NC3=CC4=C(C=C3)N=CN(C4=O)C
Summary of the method: as §1

[14] = compound: CCN(CCCOc1ccc2c(Nc3cc(CC(=O)Nc4cccc(F)c4)[nH]n3)ncnc2c1)CCOP(=O)(O)O [barasertib]
Summary of the method: as §1

[15] = compound: CN(CCOC1=CC=C(C=C1)C[C@H]2C(=O)NC(=O)S2)C3=CC=CC=N3 (racemic) [rosiglitazone]
Summary of the method: as §1

[16] = compound: CCn1cc(-c2ccnc3[nH]c(-c4cccc(CN(C)C)c4)cc23)c(-c2ccc(NC(=O)N(C)C)cc2)n1
Summary of the method: as §1

[17] = compound: CN1CCC(CNc2ccc3ncc(-c4cccc(OC(F)(F)F)c4)n3n2)CC1
Summary of the method: as §1

[18] = compound: CC[C@@H]1C(=O)N(C)c2cnc(Nc3ccc(C(=O)NC4CCN(C)CC4)cc3OC)nc2N1C1CCCC1
Summary of the method: as §1

[19] = compound: CC[C@H](C)N1C=C(C2=C(C=C(C=C21)C3=CN=C(C=C3)N4CCNCC4)C(=O)NCC5=C(C=C(NC5=O)C)C)C
Summary of the method: as §1

[20] = compound: CC1=NC(=CC=C1)C2=C(N=C(N2)C(C)(C)C)C3=CC4=NC=CN=C4C=C3
Summary of the method: as §1

Measured: log2 fold change

COG7 (UniProt P83436)
inactive: [1] 0.044 | [2] -0.061 | [3] 0.104 | [4] 0.024 | [5] 0.128 | [6] 0.253 | [7] 0.494 | [8] -0.526 | [9] -0.248 | [10] 0.195 | [11] 0.031 | [12] 0.124

CLDN12 (UniProt P56749)
inactive: [13] -0.05 | [3] 0.313 | [6] 0.048 | [14] 0.092 | [9] -0.138 | [15] -0.035

CLSTN3 isoform 2 (UniProt Q9BQT9)
inactive: [2] -0.069 | [3] 0.211 | [4] -0.102 | [5] -0.081 | [8] -0.114 | [9] -0.06 | [16] -0.252 | [11] -0.103 | [17] 0.506

CLP1 (UniProt Q92989)
inactive: [13] -0.074 | [6] 0.027 | [7] 0.134 | [14] 0.038 | [18] -0.071 | [10] -0.203 | [15] 0.028

CLPTM1L (UniProt G5E9Z2)
inactive: [13] 0.122 | [3] -0.466 | [4] 0.055 | [6] -0.035 | [14] -0.076 | [19] -0.055 | [9] 0.247 | [16] 0.116 | [11] 0.117 | [17] 0.052

COG6 (UniProt Q9Y2V7)
inactive: [1] 0.058 | [2] -0.104 | [4] -0.109 | [5] -0.025 | [6] -0.187 | [7] 0.198 | [8] -0.053 | [10] -0.104 | [11] 0.087 | [12] 0.208

CLCNKB (UniProt P51801)
inactive: [2] -0.058 | [20] -0.016 | [3] -0.245 | [4] 0.294 | [5] -0.122 | [7] 0.028 | [8] 0.174 | [19] 0.052 | [9] 0.171 | [10] 0.086 | [16] -0.003 | [11] 0.194 | [12] -0.071 | [17] 0.099

CLCN5 isoform 2 (UniProt P51795)
inactive: [1] 0.052 | [20] -0.016 | [4] 0.029 | [7] 0.022 | [18] -0.299 | [19] 0.151 | [16] 0.172 | [11] 0.046 | [12] 0.098 | [17] -0.267

CHUK (UniProt O15111)
inactive: [1] 0.032 | [3] 0.435 | [4] -0.006 | [6] 0.072 | [9] -0.267 | [16] -0.316 | [11] 0.117 | [12] 0.327 | [17] 0.021

CMC4 (UniProt P56277)
inactive: [1] -0.264 | [2] -0.011 | [20] -0.019 | [5] -0.02 | [7] -0.018 | [8] 0.156 | [10] -0.163 | [16] -0.041 | [12] -0.282 | [17] 0.154

CMTM4 (UniProt Q8IZR5)
inactive: [13] -0.024 | [3] 0.029 | [4] -0.112 | [6] 0.069 | [14] 0.078 | [18] 0.212 | [19] 0.084 | [9] -0.002 | [11] -0.043 | [15] -0.037

CNBP isoform 4 (UniProt P62633)
inactive: [6] -0.018 | [14] -0.019 | [18] 0.102 | [19] -0.024 | [15] -0.066

CLEC2B (UniProt Q92478)
inactive: [2] 0.223 | [5] 0.042 | [8] -0.385

Fetched one by one from above, 2 records:
CMC4 (UniProt P56277)
inactive: [1] -0.264 | [2] -0.011 | [20] -0.019 | [5] -0.02 | [7] -0.018 | [8] 0.156 | [10] -0.163 | [16] -0.041 | [12] -0.282 | [17] 0.154

CLEC2B (UniProt Q92478)
inactive: [2] 0.223 | [5] 0.042 | [8] -0.385

Next part.

CNRIP1 (UniProt Q96F85)
inactive: [1] 0.073 | [2] 0.023 | [3] -0.206 | [5] -0.075 | [6] -0.087 | [7] 0.106 | [8] 0.306 | [19] -0.269 | [9] -0.043

CIP2A (UniProt Q8TCG1)
inactive: [13] -1.29 | [3] 0.618 | [6] 0.058 | [9] -0.334 | [16] -0.173 | [12] -0.007 | [17] -0.344

CLN3 (UniProt Q13286)
inactive: [1] 0.004 | [2] -0.025 | [20] -0.093 | [3] -0.039 | [4] 0.147 | [5] -0.119 | [6] -0.09 | [7] 0.02 | [14] -0.027 | [18] -0.003 | [8] 0.055 | [19] -0.038 | [9] 0.09 | [11] -0.001 | [12] 0.074

CLEC11A (UniProt Q9Y240)
inactive: [2] -0.128 | [5] -0.004 | [7] -0.03 | [8] -0.093 | [10] -0.058 | [16] -0.02 | [12] 0.064 | [17] 0.193

CHTOP isoform 3 (UniProt Q9Y3Y2)
inactive: [13] 0.114 | [20] -0.193 | [3] 0.389 | [4] 0.054 | [6] 0.154 | [7] 0.078 | [9] -0.197 | [10] 0 | [11] -0.037 | [12] 0.158

CLYBL (UniProt Q8N0X4)
inactive: [2] 0.469 | [5] 0.411 | [7] -0.054 | [8] -0.161 | [10] -0.007 | [16] -0.058 | [17] 0.054

CHST14 (UniProt Q8NCH0)
inactive: [1] 0.006 | [2] 0.014 | [20] -0.139 | [3] -0.101 | [4] 0.014 | [5] -0.019 | [6] -0.061 | [7] 0.145 | [14] -0.005 | [8] -0.274 | [19] -0.026 | [9] -0.042 | [10] -0.033 | [16] 0.086 | [11] -0.023 | [15] -0.07 | [12] 0.005 | [17] -0.02

COA5 (UniProt Q86WW8)
inactive: [20] -0.07 | [3] -0.063 | [4] 0.036 | [7] -0.002 | [9] 0.042 | [10] 0.009 | [11] 0.015 | [12] 0.004

COG5 isoform 2 (UniProt Q9UP83)
inactive: [1] -0.036 | [20] -0.047 | [4] -0.072 | [7] -0.049 | [10] 0.159 | [11] -0.007

CHSY1 (UniProt Q86X52)
inactive: [3] 0.018 | [9] -0.475

CLDN6 (UniProt P56747)
inactive: [7] 0.169 | [10] 0.01 | [16] -0.45 | [12] 0.189 | [17] -0.042

Source: the supplement of paper PMC10849652
